These results are taken from article doi:10.1101/2025.11.23.689992.

Sequences of proteins named here, by UniProt entry; tags and fusion partners are left off.
UniProt P46937: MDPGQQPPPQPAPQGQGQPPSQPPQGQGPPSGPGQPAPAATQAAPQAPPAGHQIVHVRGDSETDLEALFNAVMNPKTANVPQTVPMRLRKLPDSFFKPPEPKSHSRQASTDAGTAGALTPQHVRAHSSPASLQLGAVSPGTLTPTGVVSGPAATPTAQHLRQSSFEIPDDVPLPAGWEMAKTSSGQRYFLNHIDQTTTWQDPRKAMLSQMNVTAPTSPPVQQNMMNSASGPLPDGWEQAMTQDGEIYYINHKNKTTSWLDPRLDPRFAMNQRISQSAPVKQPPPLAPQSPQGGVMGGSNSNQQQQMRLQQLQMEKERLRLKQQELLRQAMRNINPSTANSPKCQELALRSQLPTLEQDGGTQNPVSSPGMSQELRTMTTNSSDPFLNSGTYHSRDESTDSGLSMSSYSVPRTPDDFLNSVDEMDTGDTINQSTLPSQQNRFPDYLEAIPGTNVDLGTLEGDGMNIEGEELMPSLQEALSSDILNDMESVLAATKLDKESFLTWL
UniProt Q9UKN5: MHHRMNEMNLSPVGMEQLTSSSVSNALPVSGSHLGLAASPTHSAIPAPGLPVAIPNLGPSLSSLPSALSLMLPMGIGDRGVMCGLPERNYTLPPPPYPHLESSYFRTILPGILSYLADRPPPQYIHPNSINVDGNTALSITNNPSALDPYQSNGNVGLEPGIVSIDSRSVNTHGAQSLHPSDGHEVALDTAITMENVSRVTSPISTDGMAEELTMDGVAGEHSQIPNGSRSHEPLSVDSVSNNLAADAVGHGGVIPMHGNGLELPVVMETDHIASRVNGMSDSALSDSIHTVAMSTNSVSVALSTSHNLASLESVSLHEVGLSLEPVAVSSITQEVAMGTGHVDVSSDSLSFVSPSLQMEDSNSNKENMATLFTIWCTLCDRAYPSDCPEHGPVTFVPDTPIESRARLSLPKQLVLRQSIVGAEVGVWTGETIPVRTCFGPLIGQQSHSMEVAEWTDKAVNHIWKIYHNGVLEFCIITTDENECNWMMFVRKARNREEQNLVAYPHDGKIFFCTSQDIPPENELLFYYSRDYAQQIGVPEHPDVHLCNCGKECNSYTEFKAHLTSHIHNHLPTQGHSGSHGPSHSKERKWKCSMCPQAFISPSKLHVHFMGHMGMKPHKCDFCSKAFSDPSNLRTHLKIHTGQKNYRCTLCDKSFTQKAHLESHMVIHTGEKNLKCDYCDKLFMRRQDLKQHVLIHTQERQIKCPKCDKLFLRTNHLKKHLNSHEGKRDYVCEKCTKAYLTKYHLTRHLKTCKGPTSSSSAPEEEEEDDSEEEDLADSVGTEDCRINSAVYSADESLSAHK

These are yes or no findings as the source states them, for the method shown. In cells and extracts the contact can be indirect. Some entries that bind do so weakly or less than the wild type.

Assay [1] concerns the target YAP1-TEAD1-enhancer (YTE) complex (UniProt P46937). The experiment in a line: pull-down.
Assay [2] deals with Full-length YAP1 with C-terminal FLAG tag (UniProt P46937). In words: pull-down.

Regarding PRDM4 (from UniProt Q9UKN5 1-801), the binding entry in assay [1] and in assay [2] was “binds” throughout.
